{"source": "patent US20050004039A1", "about": "“Selective analgesic agents” (Regents of the University of Minnesota, priority 2002, published 2005)", "tested_on": "mice", "assay": "Antagonism of selective opioid agonist-induced antinociception, intrathecal, modified tail flick assay", "conditions": "mouse, in vivo", "note": "At least one compound was matched to its structure with a doubt left.", "data": [{"smiles": "CC(C)[C@H](NC(=O)[C@H](CCC(=O)O)NC(=O)[C@H](Cc1ccccc1)NC(=O)[C@@H](C)NC(=O)[C@@H](N)Cc1ccc(O)cc1)C(=O)N[C@H](C(=O)NCC(N)=O)C(C)C", "note": "[Deltorphin II, [D-Ala^2, Glu^4]deltorphin]", "values": [{"measurement": "antagonism of antinociception by NTB, in words", "result": "antagonized only by NTB"}, {"measurement": "control ED50 for the antinociceptive effect", "result": "#10 min, 2.91 (2.18-3.93); and 3,4-dichloro-N-methyl-N-[2-(1-pyrrolidiyl)cyclohexyl]benzeneacetamide (U50488), 12 min, 20.97 (18.18-24.71). nmol/mouse"}]}]}
